Laboratory results as given in PubChem BioAssay AID330 (DTP/NCI, 2004).
The list shows only some results of the screen, not a fair sample: it is rich in T/C values a quarter to a half above the control, in often repeated tests (any T/C) and in doses without a T/C. Further doses and runs are listed elsewhere. T/C: endpoint of the treated group in % of that of the vehicle group. Some entries give survivors of the animals treated and no T/C: the source files T/C as zero there, which appears to mark a toxic dose or a test without result, not a measured value. Some survivor counts are full or nearly so, which does not show that the dose was tolerated: survival well below the control is almost never listed, so the zero probably covers shortened survival too. Survivors were counted at the toxicity check, usually on the fifth day, unless a day is given; later deaths do not show. Schedule codes are those of the source, taken here to give the interval after Q, in days (D) or hours (H), and the number of doses after X. Some doses were run more than once; the values are given in rising order. For survival time, this PubChem deposit counts one and a half times the control or more as active, and values a quarter to a half above the control carry no call in these data; other NCI protocols may use other cut-offs.

Test system: P388 leukemia ip, CD2F1 mice, survival T/C
Assay: NCI In Vivo Anticancer Drug Screen. Data for tumor model P388 Leukemia (intraperitoneal) in CD2F1 (CDF1) mice
Details: T/C endpoint: median survival time, higher T/C = longer survival
[1] = dose: 25.0 mg/kg/injection, schedule: Q01DX005 (ip), vehicle: saline
[2] = dose: 200.0 mg/kg/injection, schedule: Q01DX009 (ip), vehicle: Klucel (hydroxypropylcellulose) (HPC)
[3] = dose: 100.0 mg/kg/injection, schedule: Q01DX009 (ip), vehicle: saline with Tween-80
[4] = dose: 200.0 mg/kg/injection, schedule: Q01DX009 (ip), vehicle: saline with Tween-80
[5] = dose: 25.0 mg/kg/injection, schedule: Q01DX009 (ip), vehicle: saline
[6] = dose: 400.0 mg/kg/injection, schedule: Q04DX003 (ip), vehicle: saline with Tween-80
[7] = dose: 50.0 mg/kg/injection, schedule: Q01DX009 (ip), vehicle: saline with Tween-80
[8] = dose: 3.0 mg/kg/injection, schedule: Q01DX005 (ip), vehicle: saline + alcohol
[9] = dose: 6.0 mg/kg/injection, schedule: Q01DX005 (ip), vehicle: saline + alcohol

CCN(CC)CCn1c(C)nc2c1C(=O)c1nc(C)n(CCN(CC)CC)c1C2=O
survivor count [1]: 6 of 6 | survivor count (dose: 50.0 mg/kg/injection, schedule: Q01DX005 (ip), vehicle: saline): 4 of 6 | survivor count (dose: 100.0 mg/kg/injection, schedule: Q01DX005 (ip), vehicle: saline): 0 of 6 | survivor count (dose: 200.0 mg/kg/injection, schedule: Q01DX005 (ip), vehicle: saline): 0 of 6

N#CC1OC1c1ccc[n+]([O-])c1 (configuration not stated)
survivor count [1]: 1 of 6

Cc1ccc(Cl)cc1NC(=O)Nc1nccs1
survivor count [2]: 5 of 6

O=C(c1ccccc1)N1OC2C=CC1C2 (configuration not stated)
survivor count [3]: 3 of 6 | survivor count [4]: 0 of 6

Oc1ccc(SCc2ccc(NCc3ccccc3)cc2)cc1
T/C [3]: 127 % of control | T/C [4]: 130 and 134 % of control

O=NN1CCNC1=O
T/C (dose: 3.0 mg/kg/injection, schedule: Q04DX003 (ip), vehicle: saline): 136 % of control | T/C (dose: 6.0 mg/kg/injection, schedule: Q04DX003 (ip), vehicle: saline): 145 % of control | T/C (dose: 6.25 mg/kg/injection, schedule: Q04DX003 (ip), vehicle: saline): 145 % of control | survivor count [5]: 6 of 6 | survivor count (dose: 37.5 mg/kg/injection, schedule: Q04DX003 (ip), vehicle: saline): 5 of 6 | survivor count (dose: 100.0 mg/kg/injection, schedule: Q04DX003 (ip), vehicle: saline with Tween-80): 3 of 6 | survivor count (dose: 200.0 mg/kg/injection, schedule: Q04DX003 (ip), vehicle: saline with Tween-80): 0 of 6 | survivor count [6]: 0 of 6

O=[N+]([O-])c1cc2c([N+](=O)[O-])cccc2o1
survivor count (dose: 400.0 mg/kg/injection, schedule: Q04DX003 (ip), vehicle: Klucel (hydroxypropylcellulose) (HPC)): 4 of 6

CCN(CC)CCCC(C)Nc1cc(OC)c2nc(C)cc(OC)c2c1OC (configuration not stated)
survivor count (dose: 12.5 mg/kg/injection, schedule: Q01DX009 (ip), vehicle: saline): 6 of 6 | survivor count [5]: 3 of 6 | survivor count [7]: 2 of 6 | survivor count [3]: 0 of 6 | survivor count [4]: 0 of 6

CCOC(=O)CCC(NC(=O)N(CCCl)CCCl)C(=O)OCC (configuration not stated)
survivor count [6]: 6 of 6

COc1cc(O)c(O)c(C(C)(C)C)c1
survivor count (dose: 240.0 mg/kg/injection, schedule: Q01DX005 (ip), vehicle: saline with Tween-80): 6 of 6

CC(C)Cc1cn(O)c2nc(=N)nc(N)c-2n1
survivor count [3]: 1 of 6

CCCCCCCCCCCCCCCCCCOCC(COP(=O)([O-])OCC[N+](C)(C)C)OC (configuration not stated)
T/C (dose: 25.0 mg/kg/injection, schedule: Q01DX005 (ip), vehicle: saline with Tween-80): 125 % of control | T/C (dose: 50.0 mg/kg/injection, schedule: Q01DX005 (ip), vehicle: saline with Tween-80): 142 and 147 % of control | survivor count (dose: 50.0 mg/kg/injection, schedule: Q01DX009 (ip), vehicle: saline): 6 of 6 | survivor count (dose: 100.0 mg/kg/injection, schedule: Q01DX005 (ip), vehicle: saline with Tween-80): 0 of 5 | survivor count (dose: 200.0 mg/kg/injection, schedule: Q01DX005 (ip), vehicle: saline with Tween-80): 0 of 5

CC(C)C(=O)OC1(C(C)c2ccccc2)C(=O)NC(=O)NC1=O (configuration not stated)
survivor count (dose: 30.0 mg/kg/injection, schedule: Q01DX005 (ip), vehicle: Klucel (hydroxypropylcellulose) (HPC)): 0 of 6 | survivor count (dose: 60.0 mg/kg/injection, schedule: Q01DX005 (ip), vehicle: Klucel (hydroxypropylcellulose) (HPC)): 0 of 6 | survivor count (dose: 120.0 mg/kg/injection, schedule: Q01DX005 (ip), vehicle: Klucel (hydroxypropylcellulose) (HPC)): 0 of 6 | survivor count (dose: 240.0 mg/kg/injection, schedule: Q01DX005 (ip), vehicle: Klucel (hydroxypropylcellulose) (HPC)): 0 of 6

CCN(CC)C(=S)N/N=C(\C)c1ccccn1
survivor count (dose: 25.0 mg/kg/injection, schedule: Q01DX009 (ip), vehicle: saline with Tween-80): 6 of 6 | survivor count [7]: 4 of 6 | survivor count [3]: 3 of 6 | survivor count [4]: 0 of 6

Nc1ccn(C2CC(N)C(CO)O2)c(=O)n1 (configuration not stated)
T/C (dose: 50.0 mg/kg/injection, schedule: Q01DX005 (ip), vehicle: water): 128 and 135 % of control | T/C (dose: 100.0 mg/kg/injection, schedule: Q01DX005 (ip), vehicle: water): 143 and 145 % of control

CSC(=O)NC(=Nc1ccccc1)NC(=O)c1ccccc1
survivor count (dose: 50.0 mg/kg/injection, schedule: Q01DX005 (ip), vehicle: Klucel (hydroxypropylcellulose) (HPC)): 6 of 6 | survivor count (dose: 100.0 mg/kg/injection, schedule: Q01DX005 (ip), vehicle: Klucel (hydroxypropylcellulose) (HPC)): 5 of 6

CN(C)c1ccc(/C=C/C2=[N+](C)c3ccccc3C2(C)C)cc1
survivor count (dose: 0.15 mg/kg/injection, schedule: Q01DX009 (ip), vehicle: saline): 4 of 6 | survivor count (dose: 0.31 mg/kg/injection, schedule: Q01DX009 (ip), vehicle: saline): 0 of 6 | survivor count (dose: 0.62 mg/kg/injection, schedule: Q01DX009 (ip), vehicle: saline): 2 of 6 | survivor count (dose: 1.25 mg/kg/injection, schedule: Q01DX009 (ip), vehicle: saline): 0 of 6 | survivor count (dose: 2.5 mg/kg/injection, schedule: Q01DX009 (ip), vehicle: saline): 1 of 6 | survivor count (dose: 5.0 mg/kg/injection, schedule: Q01DX009 (ip), vehicle: saline): 0 of 6 | survivor count (dose: 10.0 mg/kg/injection, schedule: Q01DX009 (ip), vehicle: saline): 0 of 6 | survivor count (dose: 20.0 mg/kg/injection, schedule: Q01DX009 (ip), vehicle: saline): 0 of 6

CC1C2Cc3ccc(O)cc3C1(C)CCN2Cc1ccoc1 (configuration not stated)
survivor count (dose: 200.0 mg/kg/injection, schedule: Q01DX009 (ip), vehicle: saline): 0 of 6

CCC/C=C/C=C\C(=O)O[C@@H]1[C@@H](C)[C@]2(O)[C@@H]3C=C(C)C(=O)[C@H]3CC(COC(C)=O)=C[C@H]2[C@@H]2C(C)(C)[C@]12OC(C)=O
T/C (dose: 0.75 mg/kg/injection, schedule: Q01DX005 (ip), vehicle: saline + alcohol): 98, 104, 105, 153 % of control | T/C (dose: 1.5 mg/kg/injection, schedule: Q01DX005 (ip), vehicle: saline + alcohol): 101, 105, 108, 177 % of control | T/C [8]: 106, 110, 288 % of control | survivor count [8]: 3 of 5 | T/C [9]: 119 and 130 % of control | survivor count [9]: 2 of 5 and 5 of 5 | survivor count (dose: 6.0 mg/kg/injection, schedule: Q01DX005 (ip), vehicle: saline with Tween-80): 0 of 5 | survivor count (dose: 12.0 mg/kg/injection, schedule: Q01DX005 (ip), vehicle: saline + alcohol): 0 of 6

Cc1nc(N)[nH]c(=O)c1N
survivor count (dose: 200.0 mg/kg/injection, schedule: Q01DX005 (ip), vehicle: Klucel (hydroxypropylcellulose) (HPC)): 0 of 5

N#C/C(=C1/NC(=O)c2ccccc21)c1nc2ccccc2n1CCO
survivor count [7]: 6 of 6 | survivor count [3]: 6 of 6

Cc1cnc(C#N)c(Cl)n1
survivor count (dose: 400.0 mg/kg/injection, schedule: Q01DX009 (ip), vehicle: saline with Tween-80): 6 of 6

CCNC(=O)N(Cc1ccccc1)Cc1ccccc1
survivor count (dose: 200.0 mg/kg/injection, schedule: Q01DX009 (ip), vehicle: other): 3 of 6

CCOC(=O)c1c[nH]c2c(Cl)c(Cl)ccc2c1=O
survivor count [2]: 6 of 6
